Results as given in PubChem BioAssay AID330 (DTP/NCI, 2004).
The list shows only some results of the screen, not a fair sample: it gathers tests that were run many times, whatever their T/C, doses with no T/C, and many T/C values between a quarter and a half above the control. Other doses and runs of a compound stand elsewhere. T/C is the treated group as % of the vehicle group. Some doses have a count of surviving animals in place of a T/C: the source files T/C as zero there, which appears to mark a toxic dose or a test without result, not a measured value. Some doses without a T/C left all or most animals alive at the check, yet need not have been tolerated: survival well below the control is almost never listed, so the zero probably covers shortened survival too. Counts of survivors are from the toxicity check (mostly the fifth day) where no day follows; animals may have died later. Schedules are NCI's codes, read here as Q, the interval in days (D) or hours (H), X, the number of doses. Some entries hold several experiments; the values are given in rising order. For survival time, the PubChem record calls one and a half times the control and up active, and a quarter to a half above the control has no call in these data; cut-offs in other NCI protocols can differ. Some T/C values are followed by the survivors on the day toxicity was checked, most often the fifth; without a count, all were alive then.

System: P388 leukemia ip, CD2F1 mice, survival T/C
Experiment: NCI In Vivo Anticancer Drug Screen. Data for tumor model P388 Leukemia (intraperitoneal) in CD2F1 (CDF1) mice
Settings: T/C endpoint: median survival time, higher T/C = longer survival
[1] = dose: 50.0 mg/kg/injection, schedule: Q01DX009 (ip), vehicle: saline with Tween-80
[2] = dose: 100.0 mg/kg/injection, schedule: Q01DX009 (ip), vehicle: saline with Tween-80
[3] = dose: 200.0 mg/kg/injection, schedule: Q01DX005 (ip), vehicle: saline with Tween-80
[4] = dose: 6.25 mg/kg/injection, schedule: Q01DX009 (ip), vehicle: saline
[5] = dose: 200.0 mg/kg/injection, schedule: Q01DX009 (ip), vehicle: saline
[6] = dose: 50.0 mg/kg/injection, schedule: Q01DX009 (ip), vehicle: Klucel (hydroxypropylcellulose) (HPC)
[7] = dose: 100.0 mg/kg/injection, schedule: Q01DX009 (ip), vehicle: Klucel (hydroxypropylcellulose) (HPC)
[8] = dose: 200.0 mg/kg/injection, schedule: Q01DX009 (ip), vehicle: Klucel (hydroxypropylcellulose) (HPC)
[9] = dose: 100.0 mg/kg/injection, schedule: Q01DX005 (ip), vehicle: saline with Tween-80
[10] = dose: 200.0 mg/kg/injection, schedule: Q04DX003 (ip), vehicle: Klucel (hydroxypropylcellulose) (HPC)
[11] = dose: 100.0 mg/kg/injection, schedule: Q01DX001 (ip), vehicle: saline with Tween-80
[12] = dose: 200.0 mg/kg/injection, schedule: Q01DX001 (ip), vehicle: saline with Tween-80
[13] = dose: 400.0 mg/kg/injection, schedule: Q01DX009 (ip), vehicle: saline with Tween-80
[14] = dose: 400.0 mg/kg/injection, schedule: Q01DX001 (ip), vehicle: saline with Tween-80

For `O=c1c2ccccc2nc(-c2ccccc2)n1-c1nnc(C(F)(F)F)s1`, the survivor count [1] was 1 of 6, the survivor count [2] was 0 of 6 and the survivor count (dose: 200.0 mg/kg/injection, schedule: Q01DX009 (ip), vehicle: saline with Tween-80) was 0 of 6.

For `CC(=O)NC1C(S[As](C)C)OC(COC(C)=O)C(OC(C)=O)C1OC(C)=O` (stereo not given), the T/C [2] was 125 % of control [5 of 6 alive].

`CCN(CC)c1nc(N(CC)CC)c2[nH]cnc2n1` was tested, and the survivor count [3] was 0 of 5.

In the case of `CN(C)Cc1cccc[c]1[Sn]([CH3])([Br])[c]1ccccc1CN(C)C`, the T/C [4] is reported as 97 [5 of 6 alive], 100, 120 % of control, the survivor count [4] is reported as 4 of 6 and the T/C (dose: 12.5 mg/kg/injection, schedule: Q01DX009 (ip), vehicle: saline) is reported as 93, 100, 110, 130 % of control. The T/C (dose: 25.0 mg/kg/injection, schedule: Q01DX009 (ip), vehicle: saline) was 95, 101, 114 [4 of 6 alive], 130 % of control, the survivor count (dose: 50.0 mg/kg/injection, schedule: Q01DX009 (ip), vehicle: saline) was 1 of 6 and the survivor count (dose: 100.0 mg/kg/injection, schedule: Q01DX009 (ip), vehicle: saline) was 0 of 6. For the same compound, the survivor count [5] was 0 of 6.

`CCCCCCCCCCCCCCCC[N+](C)(C)CCSc1ccccc1` was tested, and the T/C (dose: 6.25 mg/kg/injection, schedule: Q01DX009 (ip), vehicle: distilled water + alcohol) was 109 [4 of 6 alive], 110, 119, 120 % of control, the survivor count (dose: 12.5 mg/kg/injection, schedule: Q01DX009 (ip), vehicle: distilled water + alcohol) was 0 of 6 and 5 of 6 and the survivor count (dose: 25.0 mg/kg/injection, schedule: Q01DX009 (ip), vehicle: distilled water + alcohol) was 0 of 6. The survivor count (dose: 50.0 mg/kg/injection, schedule: Q01DX009 (ip), vehicle: distilled water + alcohol) was 0 of 6, the survivor count (dose: 100.0 mg/kg/injection, schedule: Q01DX009 (ip), vehicle: distilled water + alcohol) was 0 of 6 and the survivor count (dose: 200.0 mg/kg/injection, schedule: Q01DX009 (ip), vehicle: distilled water + alcohol) was 0 of 6.

For `COc1ccc2c(c1)c(CBr)c(C)c[n+]2[O-]`, the survivor count (dose: 25.0 mg/kg/injection, schedule: Q01DX005 (ip), vehicle: Klucel (hydroxypropylcellulose) (HPC)) was 4 of 6, the survivor count (dose: 100.0 mg/kg/injection, schedule: Q01DX005 (ip), vehicle: Klucel (hydroxypropylcellulose) (HPC)) was 0 of 6 and the survivor count (dose: 200.0 mg/kg/injection, schedule: Q01DX005 (ip), vehicle: Klucel (hydroxypropylcellulose) (HPC)) was 0 of 6.

For `CC1(C)OC2CC(=O)OCC23C1CC(=O)C1(C)C3CCC2(C)C(c3ccoc3)OC(=O)C3OC321` (stereo not given), the survivor count (dose: 400.0 mg/kg/injection, schedule: Q01DX010 (ip), vehicle: saline) was 6 of 6.

For `CN(C)C1=NC(NCCc2ccccc2)(N(C)C)OC(N(C)C)=N1` (stereo not given), the survivor count (dose: 200.0 mg/kg/injection, schedule: Q01DX005 (ip), vehicle: saline) was 0 of 6.

With `CCNc1ccc(/C=C2\C=Cc3ccccc32)cc1` the survivor count [6] was 6 of 6 and the survivor count [7] was 6 of 6.

`N#CN(Cc1ccccc1)C(c1ccccc1)(c1ccccc1)c1ccccc1` was tested, and the survivor count (dose: 400.0 mg/kg/injection, schedule: Q01DX001 (ip), vehicle: Klucel (hydroxypropylcellulose) (HPC)) was 6 of 6.

`COc1ccc(C2OCOCC2C)cc1` (stereo not given) was tested, and the survivor count [1] was 6 of 6.

With `[Cl][Sn]1([Cl])[CH2]CC[CH2][Sn]([Cl])([Cl])[CH2]CC[CH2]1` the survivor count (dose: 200.0 mg/kg/injection, schedule: Q04DX002 (ip), vehicle: saline) was 1 of 6 and the survivor count (dose: 400.0 mg/kg/injection, schedule: Q04DX002 (ip), vehicle: saline) was 0 of 6.

With `CNS(=O)(=O)c1c([N+](=O)[O-])ncn1C` the T/C [6] was 131 % of control, the T/C [7] was 143 % of control and the survivor count [8] was 0 of 6.

`COc1ccc(/C=c2\sc3nc(-c4ccccc4)nn3c2=O)cc1` was tested, and the survivor count [8] was 5 of 6.

For `CCCCC(CC)CN1CN2CN(CC(CC)CCCC)CC2(C)C1` (stereo not given), the survivor count [9] was 4 of 6 and the survivor count [3] was 0 of 6.

`C=C(Cl)CNc1ccccc1C(=O)O` was tested, and the survivor count [10] was 6 of 6 and the survivor count (dose: 400.0 mg/kg/injection, schedule: Q04DX003 (ip), vehicle: Klucel (hydroxypropylcellulose) (HPC)) was 6 of 6.

`COC(=O)Cn1/c(=N\N=C(/C)c2ccc([N+](=O)[O-])cc2)sc2ccccc21` was tested, and the survivor count [11] was 6 of 6 and the survivor count [12] was 6 of 6.

For `OC(C[n+]1ccccc1)c1ccc2c(c1)OCO2` (stereo not given), the survivor count [3] was 2 of 5.

For `CC(C)(C)NC(=O)N1C2C3CCC(C)(OC3(C)C)C21` (stereo not given), the survivor count [3] was 0 of 6.

In the case of `CC1(O)C=CC(=O)C=C1`, the T/C (dose: 25.0 mg/kg/injection, schedule: Q01DX009 (ip), vehicle: distilled water + Tween-80) is reported as 127 % of control, the T/C (dose: 50.0 mg/kg/injection, schedule: Q01DX009 (ip), vehicle: distilled water + Tween-80) is reported as 136 % of control [5 of 6 alive] and the survivor count (dose: 100.0 mg/kg/injection, schedule: Q01DX009 (ip), vehicle: distilled water + Tween-80) is reported as 0 of 6.

In the case of `CCN(CC)CCSCCN(CC)CC`, the survivor count [3] is reported as 0 of 6.

`COC(OC)C(C)(C)NC(C)(C)C` was tested, and the survivor count [5] was 0 of 6.

For `CC(Br)C(=O)c1ccc(OCc2ccccc2)cc1` (stereo not given), the survivor count [13] was 3 of 6.

`CCc1nc(N)nc(N)c1-c1ccc(OC)c(N)c1` was tested, and the T/C [9] was 126 % of control, the T/C [3] was 144 % of control and the T/C (dose: 400.0 mg/kg/injection, schedule: Q01DX005 (ip), vehicle: saline with Tween-80) was 141 % of control.

With `NCCCCNC(c1ccccc1)C(O)c1ccccc1` (stereo not given) the survivor count [8] was 0 of 6.

In the case of `C[Si]1(C)N[Si](C)(C)N[Si](C)(C)N1`, the survivor count [13] is reported as 0 of 6.

For `Cc1noc(NS(=O)(=O)c2ccc(N=c3c4ccccc4n(C)c4ccccc34)cc2)c1C`, the T/C (dose: 50.0 mg/kg/injection, schedule: Q01DX005 (ip), vehicle: saline with Tween-80) was 131 % of control, the T/C [9] was 130 % of control and the T/C [3] was 131 % of control.

With `CCN(CC)CCC(=O)Nc1cccc2c1C(=O)c1c(c(O)c3ccccc3c1O)C2=O` the survivor count [10] was 3 of 6.

`O=C(O)c1ccc([N+](=O)[O-])cc1O.O=C(O)c1ccc([N+](=O)[O-])cc1O.[Cu]` was tested, and the survivor count [11] was 0 of 6, the survivor count [12] was 0 of 6 and the survivor count [14] was 0 of 6.

With `CCC(c1ccc(OC)cc1)C(NCC(=O)N/N=C/c1c[nH]c2ccccc12)c1ccc(OC)cc1` (stereo not given) the survivor count [14] was 5 of 6.

With `COc1cccc2c1C(=O)c1c(O)c3c(c(O)c1C2=O)C[C@@](O)(/C(CO)=N/NC(=O)c1ccccc1)C[C@@H]3OC1CC(N)C(O)C(C)O1` (stereo not given in full) the T/C (dose: 0.5 mg/kg/injection, schedule: Q01DX009 (ip), vehicle: water) was 126 % of control, the T/C (dose: 6.5 mg/kg/injection, schedule: Q01DX009 (ip), vehicle: saline) was 130 % of control and the T/C (dose: 12.0 mg/kg/injection, schedule: Q04DX003 (ip), vehicle: water) was 133 % of control. For the same compound, the T/C (dose: 16.0 mg/kg/injection, schedule: Q01DX009 (ip), vehicle: water) was 128 % of control, the T/C (dose: 24.0 mg/kg/injection, schedule: Q04DX003 (ip), vehicle: water) was 133 % of control and the survivor count (dose: 30.0 mg/kg/injection, schedule: Q01DX009 (ip), vehicle: saline) was 4 of 6. The T/C (dose: 48.0 mg/kg/injection, schedule: Q04DX003 (ip), vehicle: water) was 146 % of control.

For `O=C(Cc1ccc(OCc2ccccc2)cc1)NCc1ccc2c(c1)OCO2`, the survivor count (dose: 60.0 mg/kg/injection, schedule: Q01DX005 (ip), vehicle: saline with Tween-80) was 6 of 6, the survivor count (dose: 120.0 mg/kg/injection, schedule: Q01DX005 (ip), vehicle: saline with Tween-80) was 5 of 6 and the survivor count (dose: 240.0 mg/kg/injection, schedule: Q01DX005 (ip), vehicle: saline with Tween-80) was 6 of 6.
